Assay results from patent CN113234166A.
These are yes or no findings as the source states them, for the method shown. Some entries that bind do so weakly or less than the wild type.

T1: 重组AFP抗原(爱必信生物，货号Abt-P-208，Genbank ID:174) (UniProt P02771)
T1 sequence (looked up): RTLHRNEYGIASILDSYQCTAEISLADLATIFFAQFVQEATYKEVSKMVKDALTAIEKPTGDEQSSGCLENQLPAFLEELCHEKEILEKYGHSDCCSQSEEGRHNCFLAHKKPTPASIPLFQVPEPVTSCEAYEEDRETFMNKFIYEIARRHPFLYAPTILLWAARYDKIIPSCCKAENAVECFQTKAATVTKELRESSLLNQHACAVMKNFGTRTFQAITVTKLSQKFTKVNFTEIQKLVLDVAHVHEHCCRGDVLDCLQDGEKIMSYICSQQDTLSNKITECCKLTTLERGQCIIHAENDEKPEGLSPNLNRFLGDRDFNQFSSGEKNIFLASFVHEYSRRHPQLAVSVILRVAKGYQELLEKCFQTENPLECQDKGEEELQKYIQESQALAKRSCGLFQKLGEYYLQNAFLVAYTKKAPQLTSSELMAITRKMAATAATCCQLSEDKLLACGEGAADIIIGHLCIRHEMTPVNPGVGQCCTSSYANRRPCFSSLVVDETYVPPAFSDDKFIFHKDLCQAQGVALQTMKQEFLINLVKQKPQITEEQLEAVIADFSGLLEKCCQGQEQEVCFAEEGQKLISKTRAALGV

T2: 血清标本中的AFP抗原 (UniProt P02771)
T2 sequence (looked up): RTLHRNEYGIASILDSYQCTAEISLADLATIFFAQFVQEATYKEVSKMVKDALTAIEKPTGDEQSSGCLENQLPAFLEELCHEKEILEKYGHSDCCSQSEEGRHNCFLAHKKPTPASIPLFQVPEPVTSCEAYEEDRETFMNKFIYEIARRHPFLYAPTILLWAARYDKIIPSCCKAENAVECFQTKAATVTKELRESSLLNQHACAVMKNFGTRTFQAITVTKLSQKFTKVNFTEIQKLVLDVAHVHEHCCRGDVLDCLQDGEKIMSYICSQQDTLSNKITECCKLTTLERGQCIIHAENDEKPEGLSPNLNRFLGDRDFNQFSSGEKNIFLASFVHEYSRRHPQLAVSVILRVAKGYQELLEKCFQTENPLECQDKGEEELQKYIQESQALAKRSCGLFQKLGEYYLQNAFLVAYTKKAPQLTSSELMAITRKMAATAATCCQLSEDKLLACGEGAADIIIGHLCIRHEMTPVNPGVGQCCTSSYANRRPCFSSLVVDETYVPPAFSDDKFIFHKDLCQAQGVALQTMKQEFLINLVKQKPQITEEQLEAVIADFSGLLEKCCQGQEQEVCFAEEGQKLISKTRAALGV


What was measured:
[1] = molecular target: T1, 重组AFP抗原(爱必信生物，货号Abt-P-208，Genbank ID:174); assay: Biacore SPR sequential injection
[2] = molecular target: T1, 重组AFP抗原(爱必信生物，货号Abt-P-208，Genbank ID:174); assay: ELISA additivity on coated antigen
血清标本中的AFP抗原 = molecular target: T2, 血清标本中的AFP抗原; assay: double-antibody sandwich chemiluminescent immunoassay, capture antibody

Row | binding [1] | binding [2] | binding (血清标本中的AFP抗原) | Binder
1 | binds | binds |  | 纳米抗体2F5 (VHH) VHH: QVQLQESGGGVVQAGGSLRLTCAASESIFSFAAMGWYRQAPGKQRELVARITGGDNINYADSVKGRFTISKDNAKNTVYLQMNSLKPEDTAVYYCNGEGYGSSWFDDGKNYWGKGTQVTVSS
2 | binds | binds |  | 纳米抗体1A7 (VHH) VHH: QVQLQESGGGLVQAGGSLRLSCAASESIFSFAAMGWYRQAPGKQRELVARITGGDNINYADSVKGRFTISKDNAKNTVYLQMNSLKPEDTAVYYCNGEGYGSSWFDDGKNYWGKGTQVTVSS
3 |  |  | binds | FC融合纳米抗体2F5 (Fc fusion, not shown: a dimerising Fc or GST) QVQLQESGGGVVQAGGSLRLTCAASESIFSFAAMGWYRQAPGKQRELVARITGGDNINYADSVKGRFTISKDNAKNTVYLQMNSLKPEDTAVYYCNGEGYGSSWFDDGKNYWGKGTQVTVSS
4 |  |  | binds | FC融合纳米抗体1A7 (Fc fusion, not shown: a dimerising Fc or GST) QVQLQESGGGLVQAGGSLRLSCAASESIFSFAAMGWYRQAPGKQRELVARITGGDNINYADSVKGRFTISKDNAKNTVYLQMNSLKPEDTAVYYCNGEGYGSSWFDDGKNYWGKGTQVTVSS
5 | binds | binds |  | 抗AFP纳米抗体1C5 (VHH) VHH: QVQLQESGGGLVQAGGSLRLSCKASERTFSSYSMAWYRQAPGKKREFVASISWDDERTYYTDSVKGRFTISRPNAKNTVYLQMNSLKPEDTAVYYCAVGGLSDGLGPSYDYWGQGTQVTVSS
